From patent US11439627B2, “Pharmaceutical composition for the treatment of autism” (Stalicla S.A., priority 2017, dated 2022)
At least one structure is not confirmed: it was looked up by name or label, or the drawing left a doubt.

Test system: patients with autism spectrum disorder classified as Phenotype 1
Assay: ADI-r scores of ASD phenotype 1 patients under treatment
Format: in vivo, human
Conditions: after between two and four months of mono-treatment, all four patients
Experimental: A pharmaceutical composition comprising ibudilast and bumetanide was administered to patients with a diagnosis of autism spectrum disorder as defined in the DSM-5, or PDD-NOS or Asperger syndrome as defined in the DSM-IV. Eligibility criteria: male sex, age 5-50, no current chronic illness, no history of active seizures within 1 year, normal liver, renal and thyroid function. Concomitant medications were permitted if doses were stable for at least 60 days prior to the initiation of the challenge test. Patients with no syndromic or identified genetic etiology. […] Description: Four of the patients characterized as above were administered ibudilast. The four subjects had varying levels of functioning ranging from mild to severe, and varying different levels of verbal and intellectual abilities. IQ values ranged from 61 to 86. All were males. Four patients were treated with ibudilast at a daily total dosage of 0.6 mg/kg, TID. A new treatment regimen was introduced, this time ibudilast at a daily total dosage of 0.6 mg/kg, TID, was administered in conjunction with bumetanide at a daily total dosage of 0.08 mg/kg, BID (with a maximum upper daily dose of […]).

CC(C)C(=O)c1c(C(C)C)nn2ccccc12 [ibudilast]
durability of treatment efficacy (ADI-r scores): loss of treatment efficacy
